Data as given in paper doi:10.1101/310003.
No constants are given. Whether binding was seen depends on the method and setting. For some assays here: In cells and extracts the contact can be indirect. Some binding calls cover weakened binding; strength is not graded here. For some assays here: Sequences can lack the tags named with a protein.

T1: SS4 fused to a moiety of YFP (BiFC construct) (Arabidopsis thaliana) (UniProt Q0WVX5)
T1 sequence: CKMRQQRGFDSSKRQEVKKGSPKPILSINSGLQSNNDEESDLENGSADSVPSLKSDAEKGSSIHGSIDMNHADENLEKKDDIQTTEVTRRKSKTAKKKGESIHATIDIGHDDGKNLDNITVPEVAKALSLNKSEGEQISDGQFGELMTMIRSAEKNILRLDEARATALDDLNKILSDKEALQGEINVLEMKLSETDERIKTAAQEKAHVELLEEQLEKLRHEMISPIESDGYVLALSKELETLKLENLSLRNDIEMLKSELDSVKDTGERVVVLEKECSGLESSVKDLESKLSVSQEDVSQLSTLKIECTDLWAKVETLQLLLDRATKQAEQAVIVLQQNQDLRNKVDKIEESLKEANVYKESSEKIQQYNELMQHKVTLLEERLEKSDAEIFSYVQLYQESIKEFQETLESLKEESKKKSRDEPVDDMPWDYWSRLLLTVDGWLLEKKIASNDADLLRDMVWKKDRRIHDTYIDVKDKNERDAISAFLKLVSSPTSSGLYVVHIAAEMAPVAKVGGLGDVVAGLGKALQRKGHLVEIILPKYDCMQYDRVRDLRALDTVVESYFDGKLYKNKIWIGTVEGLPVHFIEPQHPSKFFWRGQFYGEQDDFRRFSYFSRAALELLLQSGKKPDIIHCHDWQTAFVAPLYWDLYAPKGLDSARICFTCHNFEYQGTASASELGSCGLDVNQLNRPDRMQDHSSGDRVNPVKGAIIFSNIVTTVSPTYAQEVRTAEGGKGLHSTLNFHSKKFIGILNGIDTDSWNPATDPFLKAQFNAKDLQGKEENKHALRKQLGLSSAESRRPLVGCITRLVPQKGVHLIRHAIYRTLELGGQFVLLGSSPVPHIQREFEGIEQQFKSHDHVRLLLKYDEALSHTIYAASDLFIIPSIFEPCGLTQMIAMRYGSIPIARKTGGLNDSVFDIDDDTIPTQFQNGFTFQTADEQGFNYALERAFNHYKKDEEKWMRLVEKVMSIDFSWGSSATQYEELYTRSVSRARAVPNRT

B1: soluble starch synthase 4 (SS4), amino acids 43 to 1040, yeast two-hybrid bait (domain or fragment, UniProt Q0WVX5 43-1040)
chain: T1 sequence
B2: PII1 fused to a moiety of YFP (BiFC construct) (protein, UniProt Q8H1E5 28-783)
chain: VNHKQKSLVAFPSITRRKRHLLLSVQSVLHNTRPNINDNGSAESANVLFDKLFARTHRLERQTNQHSVYPDDDDLPYSNLGVLESDLEAALVALLKREEDLHDAERKLLSDKNKLNRAKEELEKREKTISEASLKHESLQEELKRANVELASQAREIEELKHKLRERDEERAALQSSLTLKEEELEKMRQEIANRSKEVSMAISEFESKSQLLSKANEVVKRQEGEIYALQRALEEKEEELEISKATKKLEQEKLRETEANLKKQTEEWLIAQDEVNKLKEETVKRLGEANETMEDFMKVKKLLTDVRFELISSREALVFSREQMEEKELLLEKQLEELEEQRKSVLSYMQSLRDAHTEVESERVKLRVVEAKNFALEREISVQKELLEDLREELQKEKPLLELAMHDISVIQDELYKKANAFQVSQNLLQEKESSLVEAKLEIQHLKSEQASLELLLQEKDEELAEARNKLGEVNQEVTELKALMISREDQLMEATEMLKEKDVHLHRIEGELGSSKLKVTEAEMVVERIAELTNRLLMSTTNGQNQNAMRINNEISIDSMQQPLEKPHDDYGMENKRLVMELSFTRENLRMKEMEVLAVQRALTFKDEEINVVMGRLEAKEQELKKLKEETINDSEDLKVLYALAQERVGEKTMGDLAIEMLQLEAANLEVEAATSALQKLAKMSTELLTQADMSIEADTTHTVMPERGYSEGSNECLGEVKTEVVRLWSLTEKLLENAGIVAGTSTCMEGVIL

How the values were obtained:
[1] = target: soluble starch synthase 4 (SS4), amino acids 43 to 1040, yeast two-hybrid bait (Arabidopsis thaliana) (UniProt Q0WVX5); test: two-hybrid
[2] = target: T1, SS4 fused to a moiety of YFP (BiFC construct) (Arabidopsis thaliana); test: split reporter

binding [1]	binding [2]	Binder
binds	–	B1
–	binds	B2
